# Results as given in PubChem BioAssay AID1117359 (Southern Research Institute, 2015).
# Where “and” joins values, the source holds several entries; their conditions need not be identical. Equal entries are not always repeated. Only a part is listed here, and it is no random draw. Potency and affinity values are given separately. Calls of active or inactive are those of the source.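 Rule for the calls: active = viability at or below 80% at any tested concentration, marking the compound as toxic; inactive = the rest.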
# Experiment: viability loss in THP-1 monocytes – THP-1 cells, cytotoxicity control for Vif-APOBEC3G degradation inhibitor project, dose response (AID 1117359)
# Settings: THP-1 viability, CellTiter-Glo luminescence, 72 h; at 40 µM (top of the series)
row,SMILES,viability
1,Cc1c2cc(O)c(=O)cc-2oc2cc(O)c(O)cc12,inactive: 90.6% and inactive: 103%
